# The other results are listed elsewhere or left out.
# Experiments:
# Test in all cases: glycan array binding signal (z-score within array); higher = stronger binding
# Settings in all cases: glycan notation: IUPAC condensed, linker removed
# Glc(b1-6)Glc = target: Glc(b1-6)Glc
# Procedure, shortened: (§1)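 The Consortium for Functional Glycomics database supplied 3228 glycan arrays, of which those lacking an available protein sequence were dropped. The binding signal, a within-array Z-score, was averaged across arrays of the same protein sequence and across linkers. Negative scores can be read as non-binding.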
# GlcA(b1-3)Gal = target: GlcA(b1-3)Gal
# Procedure, shortened: as §1
# GlcA(b1-3)GlcNAc = target: GlcA(b1-3)GlcNAc
# Procedure, shortened: as §1
# GlcA(b1-6)Gal = target: GlcA(b1-6)Gal
# Procedure, shortened: as §1
# [1] = target: GlcA3S(b1-3)Gal(b1-4)GlcNAc(b1-2)Man
# Procedure, shortened: as §1
# [2] = target: GlcA3S(b1-3)Gal(b1-4)GlcNAc(b1-3)Gal(b1-4)Glc
# Procedure, shortened: as §1
# [3] = target: GlcNAc(a1-3)Gal(b1-4)GlcNAc
# Procedure, shortened: as §1
# [4] = target: GlcNAc(a1-4)Gal(b1-3)GlcNAc
# Procedure, shortened: as §1
# [5] = target: GlcNAc(a1-4)Gal(b1-4)GalNAc
# Procedure, shortened: as §1
# [6] = target: GlcNAc(a1-4)Gal(b1-4)GlcNAc
# Procedure, shortened: as §1
# [7] = target: GlcNAc(a1-4)Gal(b1-4)GlcNAc(b1-3)Gal(b1-4)Glc
# Procedure, shortened: as §1
# [8] = target: GlcNAc(a1-4)Gal(b1-4)GlcNAc(b1-3)Gal(b1-4)GlcNAc
# Procedure, shortened: as §1
# [9] = target: GlcNAc(a1-4)Gal(b1-4)GlcNAc(b1-3)Gal(b1-4)GlcNAc(b1-3)Gal(b1-4)GlcNAc
# Procedure, shortened: as §1
# [10] = target: GlcNAc(a1-4)Gal(b1-4)GlcNAc(b1-3)Gal(b1-4)[Fuc(a1-3)]GlcNAc(b1-3)Gal(b1-4)[Fuc(a1-3)]GlcNAc
# Procedure, shortened: as §1
# [11] = target: GlcNAc(a1-6)Gal(b1-4)GlcNAc
# Procedure, shortened: as §1
# [12] = target: GlcNAc(b1-2)Gal(b1-3)GalNAc
# Procedure, shortened: as §1
# [13] = target: GlcNAc(b1-2)Man(a1-3)[GlcNAc(b1-2)Man(a1-6)]Man(b1-4)GlcNAc(b1-4)GlcNAc
# Procedure, shortened: as §1
# [14] = target: GlcNAc(b1-2)Man(a1-3)[GlcNAc(b1-2)Man(a1-6)]Man(b1-4)GlcNAc(b1-4)[Fuc(a1-6)]GlcNAc
# Procedure, shortened: as §1
# [15] = target: GlcNAc(b1-2)Man(a1-3)[GlcNAc(b1-4)][GlcNAc(b1-2)Man(a1-6)]Man(b1-4)GlcNAc(b1-4)GlcNAc
# Procedure, shortened: as §1
# [16] = target: GlcNAc(b1-2)Man(a1-3)[GlcNAc(b1-4)][GlcNAc(b1-2)Man(a1-6)]Man(b1-4)GlcNAc(b1-4)[Fuc(a1-6)]GlcNAc
# Procedure, shortened: as §1
# [17] = target: GlcNAc(b1-2)[GlcNAc(b1-4)]Man(a1-3)[GlcNAc(b1-2)Man(a1-6)]Man(b1-4)GlcNAc(b1-4)GlcNAc
# Procedure, shortened: as §1
# [18] = target: GlcNAc(b1-2)[GlcNAc(b1-4)]Man(a1-3)[GlcNAc(b1-4)][GlcNAc(b1-2)Man(a1-6)]Man(b1-4)GlcNAc(b1-4)GlcNAc
# Procedure, shortened: as §1
binder,measurement,setting,value
SJCP3842 (Schistosoma japonicum) (protein) MFKMRIINLVNISTVLLLINLLQTKSRLVGKENGFMLTVSIYGAQLSDKMTSVPVSWTIDYEDPEKSAFKKLVTDSCDTFSEYVKSQIPKGSVDGQCTSHIFQRPGSGSGVSISLTLSFIYVDVTQPDTVALKTELEKHFANFVTIHSHKITQAQFRINQKAIVIPTGDKDAIDGSKWKIIAIIALVALAIVVIGGFIYICVK,glycan array binding signal (z-score),Glc(b1-6)Glc,1.58
same,glycan array binding signal (z-score),GlcA(b1-3)Gal,0.657
same,glycan array binding signal (z-score),GlcA(b1-3)GlcNAc,-0.284
same,glycan array binding signal (z-score),GlcA(b1-6)Gal,0.262
same,glycan array binding signal (z-score),[1],1.44
same,glycan array binding signal (z-score),[2],-1.05
same,glycan array binding signal (z-score),[3],0.844
same,glycan array binding signal (z-score),[4],-0.429
same,glycan array binding signal (z-score),[5],-0.224
same,glycan array binding signal (z-score),[6],-0.911
same,glycan array binding signal (z-score),[7],-0.888
same,glycan array binding signal (z-score),[8],-0.28
same,glycan array binding signal (z-score),[9],2.47
same,glycan array binding signal (z-score),[10],0.814
same,glycan array binding signal (z-score),[11],-0.744
same,glycan array binding signal (z-score),[12],-0.99
same,glycan array binding signal (z-score),[13],-0.795
same,glycan array binding signal (z-score),[14],0.864
same,glycan array binding signal (z-score),[15],-1.12
same,glycan array binding signal (z-score),[16],-0.224
same,glycan array binding signal (z-score),[17],-0.27
same,glycan array binding signal (z-score),[18],-0.062

# Shown with bars between the fields: entries from further up
binder | measurement | setting | value
SJCP3842 (Schistosoma japonicum) (protein) MFKMRIINLVNISTVLLLINLLQTKSRLVGKENGFMLTVSIYGAQLSDKMTSVPVSWTIDYEDPEKSAFKKLVTDSCDTFSEYVKSQIPKGSVDGQCTSHIFQRPGSGSGVSISLTLSFIYVDVTQPDTVALKTELEKHFANFVTIHSHKITQAQFRINQKAIVIPTGDKDAIDGSKWKIIAIIALVALAIVVIGGFIYICVK | glycan array binding signal (z-score) | [7] | -0.888
same | glycan array binding signal (z-score) | [10] | 0.814
same | glycan array binding signal (z-score) | [13] | -0.795
same | glycan array binding signal (z-score) | [15] | -1.12

# Reference: the supplement of paper PMC8728848
